Experimental data from PMC5489526.
No constants are given. Whether binding was seen depends on the method and setting. Binding seen in cells or lysates may run through a third protein. Some binding calls cover weakened binding; strength is not graded here.

Sequences of proteins named here, by UniProt entry; tags and fusion partners are left off.
UniProt Q92793: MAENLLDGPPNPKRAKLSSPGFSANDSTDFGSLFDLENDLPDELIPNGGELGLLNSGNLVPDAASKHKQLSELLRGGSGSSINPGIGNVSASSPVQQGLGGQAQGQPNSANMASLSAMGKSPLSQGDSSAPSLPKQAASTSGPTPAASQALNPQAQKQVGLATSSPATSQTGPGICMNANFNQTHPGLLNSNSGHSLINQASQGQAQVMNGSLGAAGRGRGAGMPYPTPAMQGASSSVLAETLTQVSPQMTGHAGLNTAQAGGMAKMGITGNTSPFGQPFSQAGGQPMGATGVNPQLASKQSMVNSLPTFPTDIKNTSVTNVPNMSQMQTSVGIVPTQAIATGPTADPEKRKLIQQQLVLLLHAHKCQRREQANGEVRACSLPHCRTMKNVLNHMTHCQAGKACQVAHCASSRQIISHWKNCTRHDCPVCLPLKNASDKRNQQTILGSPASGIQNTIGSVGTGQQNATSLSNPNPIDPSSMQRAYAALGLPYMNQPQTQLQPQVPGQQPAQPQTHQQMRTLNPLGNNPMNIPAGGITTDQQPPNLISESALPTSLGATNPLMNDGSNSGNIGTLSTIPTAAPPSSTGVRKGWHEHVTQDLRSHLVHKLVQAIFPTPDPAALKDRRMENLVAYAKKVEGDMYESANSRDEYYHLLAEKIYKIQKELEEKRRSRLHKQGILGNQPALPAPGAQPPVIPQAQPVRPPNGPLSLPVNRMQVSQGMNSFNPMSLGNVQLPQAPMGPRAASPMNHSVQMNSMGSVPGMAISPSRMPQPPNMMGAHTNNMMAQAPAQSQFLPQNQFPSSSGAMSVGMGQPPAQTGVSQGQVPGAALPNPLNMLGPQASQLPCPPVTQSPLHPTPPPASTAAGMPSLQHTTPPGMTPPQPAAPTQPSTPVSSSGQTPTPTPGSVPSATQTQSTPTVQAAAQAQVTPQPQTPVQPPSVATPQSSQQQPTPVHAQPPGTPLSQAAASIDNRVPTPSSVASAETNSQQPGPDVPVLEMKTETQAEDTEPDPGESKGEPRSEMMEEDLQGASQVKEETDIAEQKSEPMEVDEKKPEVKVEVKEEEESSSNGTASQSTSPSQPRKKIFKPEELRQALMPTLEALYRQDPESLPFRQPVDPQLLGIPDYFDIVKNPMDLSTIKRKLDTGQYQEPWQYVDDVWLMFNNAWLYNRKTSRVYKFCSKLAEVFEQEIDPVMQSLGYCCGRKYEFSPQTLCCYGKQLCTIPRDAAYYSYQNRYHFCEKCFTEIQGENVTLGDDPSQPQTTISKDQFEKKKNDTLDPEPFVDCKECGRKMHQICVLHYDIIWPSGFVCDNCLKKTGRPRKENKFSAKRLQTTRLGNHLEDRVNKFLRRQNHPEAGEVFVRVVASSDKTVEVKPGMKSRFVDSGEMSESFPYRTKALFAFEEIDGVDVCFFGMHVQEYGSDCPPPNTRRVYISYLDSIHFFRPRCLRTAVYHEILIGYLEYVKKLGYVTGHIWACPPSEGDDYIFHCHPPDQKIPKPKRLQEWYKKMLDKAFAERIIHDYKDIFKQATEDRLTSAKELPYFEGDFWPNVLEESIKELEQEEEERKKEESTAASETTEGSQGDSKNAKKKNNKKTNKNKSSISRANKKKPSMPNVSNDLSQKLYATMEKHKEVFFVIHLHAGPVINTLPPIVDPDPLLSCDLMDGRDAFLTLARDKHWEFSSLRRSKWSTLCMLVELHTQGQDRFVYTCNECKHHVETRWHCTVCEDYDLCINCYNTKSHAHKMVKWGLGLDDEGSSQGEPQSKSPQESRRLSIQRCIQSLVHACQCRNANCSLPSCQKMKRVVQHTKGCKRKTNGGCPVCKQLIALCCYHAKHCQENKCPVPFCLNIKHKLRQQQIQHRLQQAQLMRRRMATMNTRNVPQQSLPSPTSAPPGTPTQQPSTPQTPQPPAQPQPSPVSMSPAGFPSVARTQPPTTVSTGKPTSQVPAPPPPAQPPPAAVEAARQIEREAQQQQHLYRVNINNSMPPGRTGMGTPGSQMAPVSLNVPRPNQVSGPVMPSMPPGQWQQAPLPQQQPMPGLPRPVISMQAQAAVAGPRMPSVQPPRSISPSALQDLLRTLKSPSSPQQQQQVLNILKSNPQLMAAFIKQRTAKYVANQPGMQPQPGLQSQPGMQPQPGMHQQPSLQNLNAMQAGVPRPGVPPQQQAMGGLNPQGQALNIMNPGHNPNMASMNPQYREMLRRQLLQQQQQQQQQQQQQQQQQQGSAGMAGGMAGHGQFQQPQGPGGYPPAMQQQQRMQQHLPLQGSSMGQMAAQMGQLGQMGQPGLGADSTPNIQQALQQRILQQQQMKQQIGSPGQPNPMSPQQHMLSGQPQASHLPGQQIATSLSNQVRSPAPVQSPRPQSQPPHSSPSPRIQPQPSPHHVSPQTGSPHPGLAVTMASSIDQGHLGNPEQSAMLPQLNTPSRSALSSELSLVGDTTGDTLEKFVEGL
UniProt Q16665: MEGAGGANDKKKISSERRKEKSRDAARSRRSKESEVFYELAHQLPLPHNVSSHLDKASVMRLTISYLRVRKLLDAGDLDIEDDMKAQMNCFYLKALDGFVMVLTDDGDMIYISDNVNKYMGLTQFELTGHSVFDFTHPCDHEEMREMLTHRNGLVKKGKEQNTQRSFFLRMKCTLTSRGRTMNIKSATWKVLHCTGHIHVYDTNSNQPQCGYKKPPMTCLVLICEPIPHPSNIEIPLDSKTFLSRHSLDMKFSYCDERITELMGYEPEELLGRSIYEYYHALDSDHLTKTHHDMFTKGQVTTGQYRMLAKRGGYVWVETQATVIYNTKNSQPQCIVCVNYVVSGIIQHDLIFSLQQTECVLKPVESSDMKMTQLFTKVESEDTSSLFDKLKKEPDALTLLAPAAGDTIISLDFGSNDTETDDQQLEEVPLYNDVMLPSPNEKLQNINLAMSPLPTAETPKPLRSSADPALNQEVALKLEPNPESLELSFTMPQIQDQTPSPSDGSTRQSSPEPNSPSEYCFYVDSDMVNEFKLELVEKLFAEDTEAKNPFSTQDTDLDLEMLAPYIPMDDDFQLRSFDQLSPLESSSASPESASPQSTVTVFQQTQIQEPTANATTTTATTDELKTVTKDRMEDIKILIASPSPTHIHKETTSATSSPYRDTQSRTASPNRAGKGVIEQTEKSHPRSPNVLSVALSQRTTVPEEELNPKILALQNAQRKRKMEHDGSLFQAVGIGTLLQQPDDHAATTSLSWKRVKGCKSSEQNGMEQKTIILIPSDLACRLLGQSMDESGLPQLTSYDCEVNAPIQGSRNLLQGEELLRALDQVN

Biological target: CREB-binding protein (CBP) (human (endogenous in SK-N-MC)) (UniProt Q92793)
Assay: co-IP; CBP antibody immobilised on AminoLink Plus coupling resin, incubated overnight with SK-N-MC cell lysate (IP lysis/wash buffer); cells with or without PA-BSA; eluate analysed by western blot for NF-κB p65, HIF-1α and CBP

**Q.** “hypoxia-inducible factor 1-alpha (HIF-1α) (from UniProt Q16665 1-826)” was tested. Which binding did it give?
**A.** The binding was “binds”.
